Some of the results follow.
Assays:
Assay in all cases: log2 fold change, soluble protein after heating vs DMSO (PISA); higher = thermal stabilisation; K562 cells, 10 uM, 30 min; active = over 0.2 and 3.5 SD of the protein, either way, in both replicates (recomputed)
[1] = compound: COC1=CC=C(C=C1)CN2C=CC3=C2C=C(C=C3)C(=O)NO
Procedure, shortened: (§1)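 Thermal stability values are relative to control samples and come from duplicates. They are expressed as log2 fold changes. For measurement, K562 cells (2×10^6 cells/mL) received 10 μM compound for 30 min, and aliquots were heated for 3 min over 48°C-58°C, pooled, and extracted at 4°C in PBS with 0.5% NP-40. Soluble protein, the supernatant after 21,000xg for 90 min, was quantified by TMTpro 16plex LC-MS/MS with equalised channel sums.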

Chains of the proteins cited; added tags and fusions are not shown. Lines headed by an entry give the natural chain unless they say otherwise; changes in a name come on top.
UniProt Q5XKP0: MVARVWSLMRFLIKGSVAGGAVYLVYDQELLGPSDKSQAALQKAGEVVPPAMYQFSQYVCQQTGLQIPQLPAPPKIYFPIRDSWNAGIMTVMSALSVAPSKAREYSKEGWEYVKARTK
UniProt Q9H081: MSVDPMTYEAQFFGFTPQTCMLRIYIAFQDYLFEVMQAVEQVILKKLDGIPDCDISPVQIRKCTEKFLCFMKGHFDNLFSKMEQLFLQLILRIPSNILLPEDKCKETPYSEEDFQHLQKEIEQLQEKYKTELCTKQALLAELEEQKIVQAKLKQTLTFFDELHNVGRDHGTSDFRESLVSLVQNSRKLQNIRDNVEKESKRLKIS
UniProt Q7Z3U7: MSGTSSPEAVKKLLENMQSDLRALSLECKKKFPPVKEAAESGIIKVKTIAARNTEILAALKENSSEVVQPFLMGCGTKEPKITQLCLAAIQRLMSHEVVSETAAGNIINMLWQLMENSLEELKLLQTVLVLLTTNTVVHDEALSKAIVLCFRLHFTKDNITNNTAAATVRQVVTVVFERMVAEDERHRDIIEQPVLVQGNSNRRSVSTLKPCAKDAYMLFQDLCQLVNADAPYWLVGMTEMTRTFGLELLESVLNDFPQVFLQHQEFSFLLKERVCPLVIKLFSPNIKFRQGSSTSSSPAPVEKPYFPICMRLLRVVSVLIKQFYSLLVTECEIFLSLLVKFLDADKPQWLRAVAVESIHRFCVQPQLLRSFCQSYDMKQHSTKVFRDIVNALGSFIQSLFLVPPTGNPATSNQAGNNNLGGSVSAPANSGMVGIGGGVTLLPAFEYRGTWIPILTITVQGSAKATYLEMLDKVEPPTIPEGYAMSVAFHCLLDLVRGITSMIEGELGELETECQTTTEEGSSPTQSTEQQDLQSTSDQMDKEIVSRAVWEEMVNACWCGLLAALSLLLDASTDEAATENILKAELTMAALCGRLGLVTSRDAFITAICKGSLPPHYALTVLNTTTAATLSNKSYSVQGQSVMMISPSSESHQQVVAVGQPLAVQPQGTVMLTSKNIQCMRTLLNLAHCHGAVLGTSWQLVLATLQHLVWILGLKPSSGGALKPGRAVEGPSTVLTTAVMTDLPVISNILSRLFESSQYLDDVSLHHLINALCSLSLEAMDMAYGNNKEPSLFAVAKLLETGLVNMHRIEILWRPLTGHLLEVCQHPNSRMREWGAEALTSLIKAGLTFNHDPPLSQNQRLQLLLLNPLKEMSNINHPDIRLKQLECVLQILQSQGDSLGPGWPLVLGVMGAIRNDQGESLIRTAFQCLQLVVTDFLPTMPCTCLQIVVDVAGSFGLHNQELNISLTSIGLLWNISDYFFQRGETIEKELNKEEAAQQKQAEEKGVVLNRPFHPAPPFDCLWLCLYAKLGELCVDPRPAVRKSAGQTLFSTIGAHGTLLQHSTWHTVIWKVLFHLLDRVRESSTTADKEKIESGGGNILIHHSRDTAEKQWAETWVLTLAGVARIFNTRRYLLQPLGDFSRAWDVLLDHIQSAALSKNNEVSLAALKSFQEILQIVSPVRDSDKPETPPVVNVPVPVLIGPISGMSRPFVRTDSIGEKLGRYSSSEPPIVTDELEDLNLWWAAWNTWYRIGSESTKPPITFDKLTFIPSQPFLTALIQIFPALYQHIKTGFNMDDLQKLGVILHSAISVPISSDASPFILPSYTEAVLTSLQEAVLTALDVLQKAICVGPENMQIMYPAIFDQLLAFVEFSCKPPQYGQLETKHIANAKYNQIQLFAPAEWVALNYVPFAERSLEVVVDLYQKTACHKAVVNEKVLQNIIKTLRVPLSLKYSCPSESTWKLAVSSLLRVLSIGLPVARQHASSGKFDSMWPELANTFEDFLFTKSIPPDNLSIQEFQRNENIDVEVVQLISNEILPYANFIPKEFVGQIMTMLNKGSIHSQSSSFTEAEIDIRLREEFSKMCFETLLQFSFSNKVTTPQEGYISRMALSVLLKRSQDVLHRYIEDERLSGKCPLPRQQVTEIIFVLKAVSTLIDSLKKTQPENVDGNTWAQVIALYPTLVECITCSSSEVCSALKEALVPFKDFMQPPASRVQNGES
UniProt Q96BX8: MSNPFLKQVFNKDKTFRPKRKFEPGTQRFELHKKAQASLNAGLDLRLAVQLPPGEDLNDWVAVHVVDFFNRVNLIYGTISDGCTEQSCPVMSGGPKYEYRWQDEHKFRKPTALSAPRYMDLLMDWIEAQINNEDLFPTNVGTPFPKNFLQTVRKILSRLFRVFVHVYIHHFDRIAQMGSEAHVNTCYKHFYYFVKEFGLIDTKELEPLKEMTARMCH
UniProt Q9BWT6: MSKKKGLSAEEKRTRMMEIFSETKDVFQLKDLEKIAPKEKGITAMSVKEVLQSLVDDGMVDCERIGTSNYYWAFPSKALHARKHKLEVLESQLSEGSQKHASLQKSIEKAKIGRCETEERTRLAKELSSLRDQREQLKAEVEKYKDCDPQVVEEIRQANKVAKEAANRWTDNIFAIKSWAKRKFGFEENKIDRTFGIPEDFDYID
UniProt Q96T76: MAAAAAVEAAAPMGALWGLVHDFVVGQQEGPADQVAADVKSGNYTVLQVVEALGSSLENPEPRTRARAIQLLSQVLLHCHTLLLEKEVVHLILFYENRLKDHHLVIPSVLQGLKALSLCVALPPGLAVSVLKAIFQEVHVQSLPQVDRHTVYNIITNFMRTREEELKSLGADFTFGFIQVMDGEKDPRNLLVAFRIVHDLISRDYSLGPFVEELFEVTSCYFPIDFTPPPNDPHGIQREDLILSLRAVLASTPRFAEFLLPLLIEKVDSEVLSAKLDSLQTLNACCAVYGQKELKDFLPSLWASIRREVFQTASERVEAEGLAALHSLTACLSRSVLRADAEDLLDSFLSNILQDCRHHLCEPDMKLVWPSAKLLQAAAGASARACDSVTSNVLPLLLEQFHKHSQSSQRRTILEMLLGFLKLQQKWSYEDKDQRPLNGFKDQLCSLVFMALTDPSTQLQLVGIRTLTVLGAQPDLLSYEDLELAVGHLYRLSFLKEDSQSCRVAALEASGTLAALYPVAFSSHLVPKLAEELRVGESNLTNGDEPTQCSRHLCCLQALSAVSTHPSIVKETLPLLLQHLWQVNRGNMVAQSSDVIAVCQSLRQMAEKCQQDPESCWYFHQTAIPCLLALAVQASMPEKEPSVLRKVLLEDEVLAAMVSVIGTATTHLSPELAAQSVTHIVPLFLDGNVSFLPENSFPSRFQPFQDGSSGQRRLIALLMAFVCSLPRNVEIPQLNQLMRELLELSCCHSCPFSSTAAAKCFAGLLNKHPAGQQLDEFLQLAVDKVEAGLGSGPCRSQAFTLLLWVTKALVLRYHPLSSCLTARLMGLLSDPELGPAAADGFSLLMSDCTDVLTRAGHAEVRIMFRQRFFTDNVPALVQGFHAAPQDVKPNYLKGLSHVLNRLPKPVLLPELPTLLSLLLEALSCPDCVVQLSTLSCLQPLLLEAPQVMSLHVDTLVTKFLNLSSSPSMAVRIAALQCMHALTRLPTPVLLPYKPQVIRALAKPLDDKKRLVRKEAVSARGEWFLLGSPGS
UniProt Q8N4C8: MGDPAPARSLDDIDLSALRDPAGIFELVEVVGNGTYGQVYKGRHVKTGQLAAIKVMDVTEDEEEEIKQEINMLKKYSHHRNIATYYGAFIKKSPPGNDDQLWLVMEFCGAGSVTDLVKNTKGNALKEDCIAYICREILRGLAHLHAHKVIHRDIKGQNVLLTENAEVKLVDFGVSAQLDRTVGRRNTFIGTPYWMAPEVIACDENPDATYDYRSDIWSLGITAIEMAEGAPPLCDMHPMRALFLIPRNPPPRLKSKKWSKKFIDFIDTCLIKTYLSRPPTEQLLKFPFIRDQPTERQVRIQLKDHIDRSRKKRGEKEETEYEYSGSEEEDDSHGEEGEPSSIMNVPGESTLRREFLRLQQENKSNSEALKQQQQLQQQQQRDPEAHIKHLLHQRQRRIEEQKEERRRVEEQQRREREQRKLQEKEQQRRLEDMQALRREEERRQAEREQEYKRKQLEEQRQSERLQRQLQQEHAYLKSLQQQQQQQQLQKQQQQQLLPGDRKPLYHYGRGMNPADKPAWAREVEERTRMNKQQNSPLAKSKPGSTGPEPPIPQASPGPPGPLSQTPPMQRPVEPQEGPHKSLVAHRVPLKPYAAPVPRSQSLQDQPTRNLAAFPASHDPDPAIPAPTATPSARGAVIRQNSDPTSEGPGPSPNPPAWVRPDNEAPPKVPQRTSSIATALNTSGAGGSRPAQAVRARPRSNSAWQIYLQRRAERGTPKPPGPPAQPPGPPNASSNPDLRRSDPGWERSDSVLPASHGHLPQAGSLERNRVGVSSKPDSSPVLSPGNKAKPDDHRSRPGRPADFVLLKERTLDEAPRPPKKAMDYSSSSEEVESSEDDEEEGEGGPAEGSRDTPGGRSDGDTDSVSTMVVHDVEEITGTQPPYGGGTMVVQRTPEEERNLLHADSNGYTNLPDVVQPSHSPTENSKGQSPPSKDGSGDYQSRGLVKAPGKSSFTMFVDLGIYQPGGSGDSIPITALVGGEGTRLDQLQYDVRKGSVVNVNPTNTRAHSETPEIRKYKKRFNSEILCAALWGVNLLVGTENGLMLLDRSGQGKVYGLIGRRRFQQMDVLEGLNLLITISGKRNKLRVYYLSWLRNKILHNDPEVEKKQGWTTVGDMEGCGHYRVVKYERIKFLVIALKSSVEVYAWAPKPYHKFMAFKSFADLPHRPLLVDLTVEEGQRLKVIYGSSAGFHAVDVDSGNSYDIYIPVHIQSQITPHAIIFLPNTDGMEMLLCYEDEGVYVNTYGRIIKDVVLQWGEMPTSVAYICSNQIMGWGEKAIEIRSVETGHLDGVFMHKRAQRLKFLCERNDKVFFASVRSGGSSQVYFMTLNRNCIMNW
UniProt Q9UHC7: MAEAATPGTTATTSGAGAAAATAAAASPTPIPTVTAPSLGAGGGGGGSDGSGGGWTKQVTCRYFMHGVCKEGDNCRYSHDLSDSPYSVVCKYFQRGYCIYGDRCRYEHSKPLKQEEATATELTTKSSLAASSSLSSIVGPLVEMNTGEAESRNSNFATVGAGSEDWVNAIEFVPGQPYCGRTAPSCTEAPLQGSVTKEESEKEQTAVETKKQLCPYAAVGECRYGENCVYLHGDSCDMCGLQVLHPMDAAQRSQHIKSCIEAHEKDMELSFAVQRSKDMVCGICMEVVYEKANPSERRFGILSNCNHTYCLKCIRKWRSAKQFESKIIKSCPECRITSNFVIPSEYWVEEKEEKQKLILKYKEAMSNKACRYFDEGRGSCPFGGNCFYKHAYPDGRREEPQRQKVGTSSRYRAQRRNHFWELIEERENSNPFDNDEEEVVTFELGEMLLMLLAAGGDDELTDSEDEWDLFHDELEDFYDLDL
UniProt Q70IA6: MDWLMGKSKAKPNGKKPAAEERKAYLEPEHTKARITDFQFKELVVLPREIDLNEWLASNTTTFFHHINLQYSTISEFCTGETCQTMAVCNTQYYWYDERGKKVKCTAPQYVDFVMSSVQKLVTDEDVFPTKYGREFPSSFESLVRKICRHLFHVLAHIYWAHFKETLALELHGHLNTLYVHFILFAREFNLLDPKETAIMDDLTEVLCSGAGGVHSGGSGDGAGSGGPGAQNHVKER

filanesib = compound: CON(C)C(=O)N1N=C(c2cc(F)ccc2F)S[C@@]1(CCCN)c1ccccc1 [filanesib]
Procedure, shortened: as §1

zotarolimus = compound: CO[C@H]1C[C@@H]2CC[C@@H](C)[C@@](O)(O2)C(=O)C(=O)N2CCCC[C@H]2C(=O)O[C@H]([C@H](C)C[C@@H]2CC[C@H](n3cnnn3)[C@H](OC)C2)CC(=O)[C@H](C)/C=C(\C)[C@@H](O)[C@@H](OC)C(=O)[C@H](C)C[C@H](C)/C=C/C=C/C=C/1C [zotarolimus]
Procedure, shortened: as §1

idasanutlin = compound: COc1cc(C(=O)O)ccc1NC(=O)[C@@H]1N[C@@H](CC(C)(C)C)[C@](C#N)(c2ccc(Cl)cc2F)[C@H]1c1cccc(Cl)c1F [idasanutlin]
Procedure, shortened: as §1

alisertib = compound: COc1cc(Nc2ncc3c(n2)-c2ccc(Cl)cc2C(c2c(F)cccc2OC)=NC3)ccc1C(=O)O [alisertib]
Procedure, shortened: as §1

[2] = compound: COc1cc2nc(-c3cc(F)ccc3O)nc(N[C@@H]3CNC[C@H]3C(C)(C)O)c2cc1OC
Procedure, shortened: as §1

gefitinib = compound: COc1cc2ncnc(Nc3ccc(F)c(Cl)c3)c2cc1OCCCN1CCOCC1 [gefitinib]
Procedure, shortened: as §1

[3] = compound: COc1cccc2cc(-c3nc([C@H]4CC[C@H](C(=O)O)CC4)n4ncnc(N)c34)[nH]c12
Procedure, shortened: as §1

lapatinib = compound: CS(=O)(=O)CCNCc1ccc(-c2ccc3ncnc(Nc4ccc(OCc5cccc(F)c5)c(Cl)c4)c3c2)o1 [lapatinib]
Procedure, shortened: as §1

pictilisib = compound: CS(=O)(=O)N1CCN(Cc2cc3nc(-c4cccc5[nH]ncc45)nc(N4CCOCC4)c3s2)CC1 [pictilisib]
Procedure, shortened: as §1

[4] = compound: CS(=O)(=O)c1ccc(-c2cnc(N)c(C(=O)Nc3ccccc3)n2)cc1
Procedure, shortened: as §1

crizotinib = compound: C[C@@H](Oc1cc(-c2cnn(C3CCNCC3)c2)cnc1N)c1c(Cl)ccc(F)c1Cl [crizotinib]
Procedure, shortened: as §1

[5] = compound: C[C@@H]1COCCN1C2=NC(=NC(=C2)C3(CC3)S(=O)(=O)C)C4=C5C=CNC5=CC=C4
Procedure, shortened: as §1

[6] = compound: C[C@H](C1=CC=C(C=C1)C(=O)NC2=C3C=CNC3=NC=C2)N
Procedure, shortened: as §1

gandotinib = compound: Cc1cc(Nc2cc(CN3CCOCC3)c3nc(C)c(Cc4ccc(Cl)cc4F)n3n2)n[nH]1 [gandotinib]
Procedure, shortened: as §1

[7] = compound: Cc1cc(SCc2sc(-c3ccc(C(F)(F)F)cc3)nc2C)ccc1OCC(=O)O
Procedure, shortened: as §1

doramapimod = compound: Cc1ccc(-n2nc(C(C)(C)C)cc2NC(=O)Nc2ccc(OCCN3CCOCC3)c3ccccc23)cc1 [doramapimod]
Procedure, shortened: as §1

ispinesib = compound: Cc1ccc(C(=O)N(CCCN)[C@@H](c2nc3cc(Cl)ccc3c(=O)n2Cc2ccccc2)C(C)C)cc1 [ispinesib]
Procedure, shortened: as §1

duvelisib = compound: C[C@H](Nc1ncnc2nc[nH]c12)c1cc2cccc(Cl)c2c(=O)n1-c1ccccc1 [duvelisib]
Procedure, shortened: as §1

tozasertib = compound: Cc1cc(Nc2cc(N3CCN(C)CC3)nc(Sc3ccc(NC(=O)C4CC4)cc3)n2)n[nH]1 [tozasertib]
Procedure, shortened: as §1

Measured: log2 fold change

MICOS13 (UniProt Q5XKP0)
active: ispinesib -0.257
inactive: [1] 0 | filanesib -0.095 | zotarolimus -0.048 | idasanutlin -0.144 | alisertib -0.014 | [2] -0.082 | gefitinib -0.032 | [3] 0.079 | lapatinib -0.063 | pictilisib -0.001 | [4] 0.049 | crizotinib -0.164 | [5] 0.156 | [6] -0.08 | gandotinib -0.216 | [7] -0.055 | doramapimod -0.027

MIS12 (UniProt Q9H081)
inactive: [1] 0.079 | filanesib 0.004 | zotarolimus 0.077 | idasanutlin -0.011 | alisertib 0.06 | [2] 0.035 | gefitinib 0.026 | [3] 0.032 | lapatinib -0.048 | pictilisib -0.005 | [4] 0.016 | crizotinib -0.064 | [5] -0.03 | [6] -0.099 | gandotinib -0.012 | [7] 0.009 | doramapimod -0.019 | ispinesib -0.034

MON2 isoform 5 (UniProt Q7Z3U7)
inactive: [1] -0.003 | filanesib -0.017 | zotarolimus 0.101 | idasanutlin -0.147 | alisertib 0.046 | [2] 0.091 | gefitinib 0.039 | [3] -0.004 | lapatinib 0.036 | pictilisib 0.048 | [4] 0.044 | crizotinib -0.065 | [5] 0.081 | [6] 0.033 | gandotinib -0.105 | [7] 0.171 | doramapimod 0.077 | ispinesib -0.055

Pulled one by one from the list above, two records:
MICOS13 (UniProt Q5XKP0)
active: ispinesib -0.257
inactive: [1] 0 | filanesib -0.095 | zotarolimus -0.048 | idasanutlin -0.144 | alisertib -0.014 | [2] -0.082 | gefitinib -0.032 | [3] 0.079 | lapatinib -0.063 | pictilisib -0.001 | [4] 0.049 | crizotinib -0.164 | [5] 0.156 | [6] -0.08 | gandotinib -0.216 | [7] -0.055 | doramapimod -0.027

MIS12 (UniProt Q9H081)
inactive: [1] 0.079 | filanesib 0.004 | zotarolimus 0.077 | idasanutlin -0.011 | alisertib 0.06 | [2] 0.035 | gefitinib 0.026 | [3] 0.032 | lapatinib -0.048 | pictilisib -0.005 | [4] 0.016 | crizotinib -0.064 | [5] -0.03 | [6] -0.099 | gandotinib -0.012 | [7] 0.009 | doramapimod -0.019 | ispinesib -0.034

The list continues.

MOB3A (UniProt Q96BX8)
inactive: [1] 0.007 | filanesib -0.299 | zotarolimus 0.059 | idasanutlin -0.195 | alisertib 0.074 | [2] -0.006 | gefitinib -0.025 | [3] 0.062 | lapatinib 0.04 | pictilisib 0.121 | [4] -0.176 | crizotinib 0.007 | [6] -0.071 | duvelisib 0.022 | gandotinib -0.08 | tozasertib 0.022 | [7] 0.115 | doramapimod -0.027 | ispinesib -0.027

MND1 (UniProt Q9BWT6)
inactive: [1] -0.037 | filanesib -0.057 | zotarolimus -0.077 | idasanutlin 0.099 | alisertib 0.062 | [2] -0.235 | gefitinib -0.193 | [3] 0.03 | lapatinib -0.025 | pictilisib 0.032 | [4] 0 | crizotinib -0.217 | [5] 0.005 | [6] 0.018 | gandotinib -0.076 | [7] -0.024 | doramapimod 0.009 | ispinesib -0.184

MRPL33 (UniProt O75394)
inactive: [1] 0.073 | filanesib 0.008 | zotarolimus -0.021 | idasanutlin -0.035 | alisertib -0.066 | [2] -0.024 | gefitinib -0.018 | [3] -0.138 | lapatinib 0.163 | [4] -0.029 | crizotinib -0.099 | [5] 0.064 | [6] 0.183 | duvelisib -0.339 | tozasertib -0.064 | [7] 0.054 | doramapimod 0.116 | ispinesib -0.198

MMS19 isoform 8 (UniProt Q96T76)
inactive: [1] -0.094 | filanesib -0.036 | zotarolimus 0.037 | idasanutlin -0.014 | alisertib -0.019 | [2] 0.06 | gefitinib 0.026 | [3] 0.019 | lapatinib -0.021 | pictilisib -0.008 | [4] 0.002 | crizotinib -0.156 | [5] 0.023 | [6] 0.053 | gandotinib -0.129 | [7] 0.103 | doramapimod 0.033 | ispinesib -0.035

MINK1 (UniProt Q8N4C8)
inactive: [1] -0.054 | filanesib -0.003 | zotarolimus 0.014 | idasanutlin 0.013 | alisertib -0.042 | [2] -0.064 | [3] 0.024 | lapatinib 0.024 | pictilisib -0.019 | [4] 0.032 | crizotinib -0.207 | [5] -0.038 | [6] -0.067 | gandotinib -0.024 | [7] 0.073 | doramapimod -0.035 | ispinesib -0.032

MICB, A0A140T979
inactive: [1] 0.005 | zotarolimus -0.029 | idasanutlin 0.025 | alisertib -0.089 | [2] 0.044 | gefitinib 0.073 | [3] 0.007 | lapatinib -0.039 | pictilisib 0.088 | crizotinib -0.052 | [5] 0.106 | [6] 0.153 | duvelisib 0.033 | gandotinib -0.043 | tozasertib -0.037 | [7] -0.06 | doramapimod 0.082 | ispinesib -0.103

MKRN1 (UniProt Q9UHC7)
inactive: [1] -0.074 | zotarolimus -0.015 | alisertib -0.145 | [2] -0.059 | gefitinib -0.269 | [3] -0.408 | lapatinib 0.052 | pictilisib -0.086 | crizotinib 0.063 | [5] -0.198 | [6] 0.074 | gandotinib 0.187 | tozasertib 0.013 | doramapimod 0.015 | ispinesib 0.135

MOB2 isoform 3 (UniProt Q70IA6)
inactive: zotarolimus 0.205 | alisertib -0.066 | [2] -0.184 | gefitinib 0.051 | [3] 0.02 | lapatinib 0.025 | pictilisib 0.06 | [5] -0.166 | [6] 0.044 | gandotinib -0.093 | ispinesib -0.025
